Laboratory results from PMC7880572 (ACS Chemical Neuroscience, 2021).

Assay: in vitro
Details: PAMPA, pH 7.4

**Q.** For CC(C)NCC(O)COc1ccc(CC(N)=O)cc1 (centres unmarked) [Atenolol], which Papp at 16 h is on record?
**A.** 0.88 ×10⁻⁶ cm/s

**Q.** Which Papp does the source give for CN1C(=O)CN=C(c2ccccc2)c2cc(Cl)ccc21 [Diazepam] here?
**A.** 13.1 ×10⁻⁶ cm/s
